Data on one molecule can be found in paper PMC12930380, “Overcoming Ligand Discovery Challenges: Developing Peptide-Based Tracers for SPSB2” (ACS Chemical Biology, 2025).

Assay [1] deals with T1, C-terminally Nanoluc-tagged human full length SPSB2 (human) (UniProt Q99619).
T1 sequence: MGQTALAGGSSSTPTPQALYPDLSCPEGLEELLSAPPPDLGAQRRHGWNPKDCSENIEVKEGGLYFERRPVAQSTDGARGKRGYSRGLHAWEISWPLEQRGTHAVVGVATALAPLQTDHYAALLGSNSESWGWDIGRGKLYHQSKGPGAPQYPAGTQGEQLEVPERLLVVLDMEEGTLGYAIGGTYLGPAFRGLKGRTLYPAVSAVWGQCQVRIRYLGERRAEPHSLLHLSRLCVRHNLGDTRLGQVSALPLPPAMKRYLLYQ
Description: FRET or BRET; NanoBRET displacement; 6 nM to 50 μM cyclic TAT peptide against 20 nM (repeats also 30 nM) cyclic TAT tracer in intact HCT116 cells transfected with SPSB2-NanoLuc; only the binder purified.

Assay [2] addresses T1, C-terminally Nanoluc-tagged human full length SPSB2 (human). Description: FRET or BRET; NanoBRET displacement; 6 nM to 50 μM cyclic TAT peptide against 20 nM (repeats also 30 nM) cyclic TAT tracer in HCT116 cells transfected with SPSB2-NanoLuc and permeabilized with 25 μM digitonin; only the binder purified. (In general: In BRET a luciferase serves as donor, and the signal depends on an acceptor being close.)

Results are given in words; binding and its absence hold for the method and conditions named. In cells and extracts the contact can be indirect. Some binding calls cover weakened binding; strength is not graded here. Where a sequence is shown, tags or fusion partners need not be part of it.

On to CYGRKKRRQRRRCGSGVDINNN (PEG4 on the N-terminus; disulfide bridge flanking the TAT sequence) [cyclic TAT peptide], for which the binding result in assay [1] and in assay [2] was “binds” throughout.
